Measurements taken from publication PMC7026339, “Human bone morphogenetic protein-2 (hBMP-2) characterization by physical–chemical, immunological and biological assays” (AMB Express, 2020).
No constants are given. Whether binding was seen depends on the method and setting. Some entries that bind do so weakly or less than the wild type. For part of these data: Where a sequence is shown, tags or fusion partners need not be part of it.

Assays:
[1] = molecular target: T1, CHO-derived hBMP-2 (Infuse, Medtronic), 114 amino acid glycosylated subunit (form A) (human) (UniProt P12643); test: MALDI-TOF-MS; linear positive mode, 5000-40,000 Da, sinapinic acid matrix in 0.1% TFA and 50% acetonitrile; both purified
T1 sequence (chain, glycosylated at one site with high-mannose-type glycans): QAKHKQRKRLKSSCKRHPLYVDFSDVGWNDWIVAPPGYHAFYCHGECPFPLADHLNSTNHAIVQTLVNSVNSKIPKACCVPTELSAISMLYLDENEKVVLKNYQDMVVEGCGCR

[2] = molecular target: E. coli-derived methionyl-human bone morphogenetic protein-2 (met-hBMP-2, GenScript) (human) (UniProt P12643); test: SDS-PAGE and Western blotting under reducing conditions; 15% acrylamide gel, Coomassie Blue G stain; Western blot with anti-hBMP-2 rabbit IgG; reducing conditions; both purified
[3] = molecular target: T1, CHO-derived hBMP-2 (Infuse, Medtronic), 114 amino acid glycosylated subunit (form A) (human); test: as above

B1: CHO-derived hBMP-2 (Infuse, Medtronic), 131 amino acid glycosylated subunit (form B) (protein, UniProt P12643 266-396)
chain: TFGHDGKGHPLHKREKRQAKHKQRKRLKSSCKRHPLYVDFSDVGWNDWIVAPPGYHAFYCHGECPFPLADHLNSTNHAIVQTLVNSVNSKIPKACCVPTELSAISMLYLDENEKVVLKNYQDMVVEGCGCR
modifications: glycosylated at one site with high-mannose-type glycans
binding [1]: binds

B2: E. coli-derived methionyl-human bone morphogenetic protein-2 (met-hBMP-2, GenScript) (natural protein)
chain: MQAKHKQRKRLKSSCKRHPLYVDFSDVGWNDWIVAPPGYHAFYCHGECPFPLADHLNSTNHAIVQTLVNSVNSKIPKACCVPTELSAISMLYLDENEKVVLKNYQDMVVEGCGCR
notes: initial methionine of methionyl-hBMP-2 (printed as 'initial Met'); human bone morphogenetic protein-2, mature protein of 114 AA (theoretical backbone 12,905 Da without the initial Met; 13,036 Da with it); theoretical mass of the dimer 26,072 Da; also called E. coli-derived hBMP-2; GenScript preparation; source: bought: GenScript (from E. coli), lyophilized, reconstituted in 20 mM acetic acid
binding [2]: no binding (condition: under reducing conditions)

B3: CHO-derived hBMP-2 (Infuse, Medtronic), 114 amino acid glycosylated subunit (form A) (natural protein, human, UniProt P12643 283-396, looked up)
chain: QAKHKQRKRLKSSCKRHPLYVDFSDVGWNDWIVAPPGYHAFYCHGECPFPLADHLNSTNHAIVQTLVNSVNSKIPKACCVPTELSAISMLYLDENEKVVLKNYQDMVVEGCGCR
modifications: glycosylated at one site with high-mannose-type glycans
notes: human bone morphogenetic protein-2, authentic mature protein of 114 AA without initial Met (backbone 12,905 Da); Infuse is a disulfide-linked dimeric protein with two major subunit species of 114 and 131 amino acids; this molecule is the 114 AA subunit; also called 14,377 Da form; 114 AA monomer
binding [3]: no binding (condition: under reducing conditions)
